Test results taken from PubChem BioAssay AID743266 (National Center for Advancing Translational Sciences (NCATS), 2014).
The campaign covered roughly 410,000 compounds. About 310 (0.076%) were called active. The shares of active, inactive and inconclusive entries below differ from those in the screen. The call rests on the fitted dose curve; in most records, active means well fitted activation curve with a large enough effect; inconclusive means small, poorly fitted or top-dose-only effect, or another doubt; inactive means no such curve, though single readings can be large or run the other way. Potencies beside an inconclusive call are fits to weak or partial responses and may not hold up.

Amino acid sequences for entries named in this document (tags omitted).
UniProt Q03431, whole entry, looked up: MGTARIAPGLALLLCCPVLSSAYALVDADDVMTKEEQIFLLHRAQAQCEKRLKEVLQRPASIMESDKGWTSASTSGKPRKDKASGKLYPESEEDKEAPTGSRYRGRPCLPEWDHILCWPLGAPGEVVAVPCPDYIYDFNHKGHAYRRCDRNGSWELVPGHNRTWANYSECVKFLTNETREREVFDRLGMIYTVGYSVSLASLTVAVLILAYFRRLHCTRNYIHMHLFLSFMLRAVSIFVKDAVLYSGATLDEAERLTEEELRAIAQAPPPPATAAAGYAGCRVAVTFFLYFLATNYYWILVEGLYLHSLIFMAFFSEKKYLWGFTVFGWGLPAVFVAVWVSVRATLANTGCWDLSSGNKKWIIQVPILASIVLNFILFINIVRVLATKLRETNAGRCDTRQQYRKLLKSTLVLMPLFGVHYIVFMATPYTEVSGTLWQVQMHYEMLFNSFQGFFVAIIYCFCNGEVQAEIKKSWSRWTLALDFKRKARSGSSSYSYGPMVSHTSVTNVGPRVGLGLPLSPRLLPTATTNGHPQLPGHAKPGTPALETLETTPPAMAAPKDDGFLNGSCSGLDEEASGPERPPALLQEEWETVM

biological target: Parathyroid hormone/parathyroid hormone-related peptide receptor (Homo sapiens) (UniProt Q03431); assay: qHTS for PTHR1 Agonists: Primary Screen; settings: HEK293 GP2 PTHR1 cells, GloSensor cAMP luminescence, 1 h; activation: at 115 µM (top of the series) unless noted; series mostly up to 115 µM; further: nearly all actives have a fitted effect of over 55% in size
Method in brief: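 HEK-293-derived GP2 cells expressing PTHR1 and a GloSensor cAMP reporter, 3,000/well, plated overnight, given luciferin plus IBMX (each 0.5 mM as added) for 1 h at 37 °C, then compound for 1 h at 37 °C. Luminescence was read after 15 min at room temperature.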
Potency means the concentration at half of the fitted maximal effect.

Potency, inconclusive:
CC1CCCCN1CCNC(=O)C1CCN(S(=O)(=O)N2CCCCC2)CC1 (stereo unspecified) 39.8 µM [activator, single point]
CN(C)c1ccc(Nc2ccc([N+](=O)[O-])cn2)cc1 89.1 µM [activator, partial curve, poor fit]
Nc1ncnc2c1CCC2 8.91 µM [activator, full curve, poor fit]
CN(CC(=O)Nc1ccc(F)cc1)C(=O)c1cc([N+](=O)[O-])ccc1N1CCOCC1 158 µM [activator, single point]
COc1ccc(C(=O)OCC(=O)Nc2c(C)cccc2C)c(OC)c1OC 126 µM [activator, single point]
O=C(NCCCN1CCN(c2ccc(F)cc2)CC1)Nc1ccccc1Cl 44.7 µM [activator, partial curve, poor fit]
O=C(CSc1nnc(-c2ccc(Cl)cc2)n1Cc1ccco1)NCc1ccc2c(c1)OCO2 25.1 µM [activator, partial curve, poor fit]
COc1ccc(C)cc1NC(=O)CN(C)S(=O)(=O)c1ccc2c(c1)c(=O)n(C)c(=O)n2C 50.1 µM [activator, full curve, poor fit]
CCCn1cc(S(=O)(=O)c2ccc(C)c(C)c2)c(=O)c2cc(F)c(N3CCCCC3)cc21 112 µM [activator, single point]
C#CCOCCOCCOCCNc1nc(N2CCOCC2)nc(N2CCN(C(=O)[C@H]([C@@H](C)O)n3cc(CCCCN)nn3)CC2)n1 10 µM [activator, partial curve, poor fit]
COc1cc(C(=O)N/N=C(\C)c2ccc3c(c2)OCO3)cc(OC)c1OC 141 µM [activator, single point]
COc1cccc(CNC(=O)CN2C(=O)COc3ccc(S(=O)(=O)N4CCCCC4)cc32)c1 44.7 µM [activator, partial curve, poor fit]
C=CCNC(=O)C1CCC(C(=O)NCC=C)CC1 (stereo unspecified) 126 µM [activator, single point]
NC1=NN=C(N2N=C(c3ccco3)CC2(O)C(F)(F)F)n2ncnc2C1 (stereo unspecified) 17.8 µM [activator, full curve]
COC(=O)CSc1nc(N)nc(C)c1Br 44.7 µM [activator, single point]
O=C(NCc1ccccc1)NC1COc2ccccc2C1 (stereo unspecified) 141 µM [activator, single point]
CCCCCCn1cc(C(=O)O)c(=O)c2cc(F)c(N3CCCCC3)cc21 15.8 µM [activator, partial curve]
COc1ccc(CNC(=O)CCCc2nnc3n(C(C)C)c(=O)c4sccc4n23)cc1 5.62 µM [activator, full curve, poor fit]
Cc1nn(C(C)C(=O)NC2CC2)c(=O)c2nn(-c3ccccc3)c(C)c12 (stereo unspecified) 126 µM [activator, single point]
O=C(NCCc1ccccc1)c1ccc(-c2ccc(F)c(F)c2)c2ccoc12 15.8 µM [activator, partial curve]
Cc1c(C(=O)NCCSCc2ccccc2Cl)cccc1[N+](=O)[O-] 6.31 µM [activator, full curve, poor fit]

Potency, inactive:
CCOc1ccc(N(CC(=O)Nc2ccccc2OC)S(=O)(=O)c2ccccc2)cc1
COc1ccc(Br)cc1/C=N/Nc1cccc(C(=O)O)c1
Cc1nn2c(NC(C)C)c3c(nc2c1-c1ccccc1)CCC3
CN(C)c1ccc(C(C#N)c2ccccc2)nn1 (stereo unspecified)
COc1cc(C(=O)OCCCc2cc3ccccc3c(=O)o2)cc(OC)c1OC
COc1ccc(OC)c(-c2noc(N3CCN(c4cccc(C(F)(F)F)c4)CC3)n2)c1
COC(=O)c1cnc(NC(=O)C2(C)CCCN(C(C)=O)C2)s1 (stereo unspecified)
COc1cccc(C(O)c2ncc(-c3ccccc3)[nH]2)c1 (stereo unspecified)
CCCc1cc(=O)[nH]c(Nc2cc(Cl)cc(Cl)c2)n1
CCOC(=O)c1cn2nc(SCc3ccccc3)nc2nc1C
Cc1cc(OCc2cc(C(=O)N(C)C(C)c3ccccn3)no2)cc(C)c1Cl (stereo unspecified)
COc1ccc(-c2nsc3c(N4CCCCC4C)ncnc23)cc1 (stereo unspecified)
COC(=O)C1=C(C(=O)OC)C(c2cc(Cl)ccc2O)c2sc(=O)[nH]c2S1 (stereo unspecified)
O=C(Nc1ccc(N2CCOCC2)cc1)c1ccc([N+](=O)[O-])o1
O=C1N[C@@H](c2ccccc2)COC(=O)[C@@H](Cc2ccc(F)cc2)C/C=C\C[C@H]1CC(=O)N(CCO)Cc1ccccc1
O=C(COc1ccccc1F)Nc1ccc2nc(SCC(=O)N3CCOCC3)sc2c1
COc1ccc(C(=O)C2CCCN(Cc3ccc4nonc4c3)C2)c(OC)c1 (stereo unspecified)

Retrieved by structure from the list above, 4 records:
Potency, inactive:
COC(=O)C1=C(C(=O)OC)C(c2cc(Cl)ccc2O)c2sc(=O)[nH]c2S1 (stereo unspecified)
COC(=O)c1cnc(NC(=O)C2(C)CCCN(C(C)=O)C2)s1 (stereo unspecified)
CCOC(=O)c1cn2nc(SCc3ccccc3)nc2nc1C
CN(C)c1ccc(C(C#N)c2ccccc2)nn1 (stereo unspecified)

Next part:

activation, inconclusive:
CCN1CCN(CCCNC(=O)c2cnn(-c3ccccc3Cl)c2C2CCN(C(=O)OC(C)(C)C)CC2)CC1 68.5% [activator]
COC(C(=O)Nc1ccc(S(=O)(=O)N2CCCCC2)cc1)c1ccccc1 (stereo unspecified) 298% [activator] [at 57.5 µM]
O=C(O)c1cccc(S(=O)(=O)Nc2ccc3[nH]c(=O)[nH]c3c2)c1 56.6% [activator]
O=C(C1CCN(S(=O)(=O)c2cccs2)CC1)N1CCN(c2ccccc2F)CC1 42.1% [activator]
COc1ccc(/C=C/CN2CCN(CC(C)C)C(CCO)C2)cc1 (stereo unspecified) 34% [activator]
COc1ccc2[nH]c(=O)c(CNc3ccccc3C)cc2c1 42.7% [activator]
CCc1cc(CNC(=O)c2ccc3nc(Cc4ccc(OC)c(OC)c4)oc3c2)on1 -58.5% [activator]
O=C(Nc1ccnn1C1CCN(C2CCCCC2)CC1)c1ccccc1 46.5% [activator]
